Record: PubChem BioAssay AID1053208 (Peter MacCallum Cancer Centre, 2014)
Shown is a random part of about 17,000 deposited reagents. In the full data, 788 (4.7%) got an active call. 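Calls rest on z-score classes alone; an extra cut-off of viability at most 70% of control was not applied to them.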 Entries without a mark were called inactive. Further read-outs or replicates are left out here.

Aim: 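Find knock-downs that sensitise mouse osteosarcoma cells to doxorubicin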 (primary screen)
Cells: mouse osteosarcoma cells, early-passage culture from an engineered mouse model of fibroblastic bone tumour
Reagent: siRNA pool against mouse genes, 40 nM
Time to read-out: about 120 h (48 h before drug, then 72 h with drug)
Conditions: doxorubicin 100 nM for 72 h, roughly 30-40% inhibitory dose
Measured: 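Viability read as ATP luminescence after 72 h of 100 nM doxorubicin or none, duplicate wells averaged, scaled to non-targeting siRNA, then expressed as robust z-scores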
Direction: viability z-score with doxorubicin: higher = more viable cells under doxorubicin; viability z-score without drug: higher = more viable cells with knock-down alone
Active means: 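a pool counts as active when its viability z-score with doxorubicin is -2 or below and its z-score without drug lies between -2 and 2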

What did the screen give for 1700029H14Rik (GeneID 66501)?
combined z-score class: no change with or without drug; viability z-score with doxorubicin: 0.79; viability z-score without drug: 0.17

For Bcl9 (GeneID 77578), how do the results read?
combined z-score class: no change with or without drug; viability z-score with doxorubicin: 0; viability z-score without drug: -0.34

How did the screen score Dhrs7 (GeneID 66375)?
combined z-score class: no change with or without drug; viability z-score with doxorubicin: 1.46; viability z-score without drug: 1.69

With Gen1 (GeneID 209334), how do the results read?
combined z-score class: no change with or without drug; viability z-score with doxorubicin: 1.12; viability z-score without drug: 1.01

How did the screen score Hipk2 (GeneID 15258)?
combined z-score class: no change with or without drug; viability z-score with doxorubicin: 1.24; viability z-score without drug: 0.17

What did the screen give for Cstf1 (GeneID 67337)?
combined z-score class: no change with or without drug; viability z-score with doxorubicin: -0.67; viability z-score without drug: -1.69

For Clec4e (GeneID 56619), what was measured?
combined z-score class: no change with or without drug; viability z-score with doxorubicin: -1.57; viability z-score without drug: 0

How did the screen score Exoc7 (GeneID 53413)?
combined z-score class: no change with or without drug; viability z-score with doxorubicin: -0.22; viability z-score without drug: 0.51

What did the screen give for Prh1 (GeneID 19131)?
combined z-score class: no change with or without drug; viability z-score with doxorubicin: 0.22; viability z-score without drug: -0.17

What did the screen give for Pxylp1 (GeneID 235534)?
combined z-score class: no change with or without drug; viability z-score with doxorubicin: 0.79; viability z-score without drug: 0.51

With Gcnt2 (GeneID 14538), how do the results read?
combined z-score class: low cell count with doxorubicin only (active); viability z-score with doxorubicin: -2.59; viability z-score without drug: -0.84

For Nabp2 (GeneID 69917), what was measured?
combined z-score class: no change with or without drug; viability z-score with doxorubicin: -1.69; viability z-score without drug: -0.84

For Rpl13a (GeneID 22121), how do the results read?
combined z-score class: low cell count with and without drug; viability z-score with doxorubicin: -4.05; viability z-score without drug: -3.2

How did the screen score Coasy (GeneID 71743)?
combined z-score class: no change with or without drug; viability z-score with doxorubicin: -1.12; viability z-score without drug: -0.51

What is on record for Ptpn18 (GeneID 19253)?
combined z-score class: no change with or without drug; viability z-score with doxorubicin: 1.35; viability z-score without drug: 0.84

Which result is listed for Serpina6 (GeneID 12401)?
combined z-score class: high cell count without drug only; viability z-score with doxorubicin: 0.9; viability z-score without drug: 2.19

For Smim30 (GeneID 66520), how do the results read?
combined z-score class: no change with or without drug; viability z-score with doxorubicin: 0.67; viability z-score without drug: 1.18

For Robo1 (GeneID 19876), how do the results read?
combined z-score class: no change with or without drug; viability z-score with doxorubicin: 0; viability z-score without drug: -0.51

Which result is listed for Clba1 (GeneID 217887)?
combined z-score class: no change with or without drug; viability z-score with doxorubicin: -1.46; viability z-score without drug: -0.17

What did the screen give for Or4c11c (GeneID 258898)?
combined z-score class: no change with or without drug; viability z-score with doxorubicin: -0.45; viability z-score without drug: -0.51

For Ube4b (GeneID 63958), how do the results read?
combined z-score class: no change with or without drug; viability z-score with doxorubicin: 0.11; viability z-score without drug: -1.01

With Limd2 (GeneID 67803), what was measured?
combined z-score class: no change with or without drug; viability z-score with doxorubicin: 0.79; viability z-score without drug: -0.17

Which result is listed for Faap24 (GeneID 101831)?
combined z-score class: low cell count without drug only; viability z-score with doxorubicin: 0.22; viability z-score without drug: -3.88

Reagents above with an active call, once more:
Gcnt2 (GeneID 14538) — combined z-score class = low cell count with doxorubicin only (active); viability z-score with doxorubicin = -2.59; viability z-score without drug = -0.84

Next records:
With Map3k10 (GeneID 269881), what does the deposit list?
combined z-score class: no change with or without drug; viability z-score with doxorubicin: -0.22; viability z-score without drug: -0.34

What is on record for Ndufb9 (GeneID 66218)?
combined z-score class: low cell count without drug only; viability z-score with doxorubicin: 0.45; viability z-score without drug: -2.87

For Ccdc63 (GeneID 330188), what does the deposit list?
combined z-score class: no change with or without drug; viability z-score with doxorubicin: -1.12; viability z-score without drug: -0.17

For F8 (GeneID 14069), how do the results read?
combined z-score class: no change with or without drug; viability z-score with doxorubicin: -0.67; viability z-score without drug: -0.17

With A430057O09 (GeneID 330132), what does the deposit list?
combined z-score class: no change with or without drug; viability z-score with doxorubicin: 0.22; viability z-score without drug: 0.17

With Ccr3 (GeneID 12771), how do the results read?
combined z-score class: no change with or without drug; viability z-score with doxorubicin: 0.11; viability z-score without drug: -0.17

What is on record for Sh3rf3 (GeneID 237353)?
combined z-score class: no change with or without drug; viability z-score with doxorubicin: -0.22; viability z-score without drug: 0.51

With Tjap1 (GeneID 74094), what does the deposit list?
combined z-score class: no change with or without drug; viability z-score with doxorubicin: -1.46; viability z-score without drug: -1.18

With Trim44 (GeneID 80985), what was measured?
combined z-score class: no change with or without drug; viability z-score with doxorubicin: 0.9; viability z-score without drug: -0.84

With Mtcl1 (GeneID 68617), what does the deposit list?
combined z-score class: no change with or without drug; viability z-score with doxorubicin: -1.01; viability z-score without drug: -0.51

What is on record for Ccdc82 (GeneID 66396)?
combined z-score class: low cell count with doxorubicin only (active); viability z-score with doxorubicin: -2.59; viability z-score without drug: 0.84

How did the screen score Coq10b (GeneID 67876)?
combined z-score class: no change with or without drug; viability z-score with doxorubicin: 0.67; viability z-score without drug: -0.17

For Mrps28 (GeneID 66230), what was measured?
combined z-score class: no change with or without drug; viability z-score with doxorubicin: -1.46; viability z-score without drug: 0.34
